Record: PubChem BioAssay AID1259271 (Sanger Institute, 2017)
Assay: 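Kinase knock-downs that deepen anchor drug effects in colorectal cancer cells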 (follow-up of hits). System: RKO colorectal cancer cells. Reagents: single siRNA against human genes. Challenge: anchor drug added to each siRNA well, cetuximab 5 µg/ml, trametinib 10 nM or BYL719 1 µM, compared with DMSO vehicle; exposure length not given. Measurement: 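Survival of cells relative to control pool 2 (non-targeting), replicate average, plus a synergy score for each anchor drug (trametinib 10 nM, cetuximab 5 µg/ml, BYL719 1 µM) compared with DMSO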. Reading the numbers: synergy score with BYL719 and synergy score with cetuximab and synergy score with trametinib: higher = stronger synthetic lethality with the drug. Call rule: 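Any anchor drug giving synergy above 0.10 makes the siRNA a hit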. Meaning of the calls: active = synergy with at least one drug; inactive = no synergy with any drug.
Here is one part, drawn at random, of 160 reagents. Of all reagents, 124 (78%) were called active. 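Each row is one of four siRNAs per gene; gene-level confirmation, requiring two siRNAs in several cell lines, is not included.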 The numbers tell different reagents against one gene apart. Not all columns of the deposit are shown. The record does not give: the amount of reagent, the time to read-out.

Against HSPB8 (GeneID 26353) #1 the deposit lists synergy score with BYL719 = 0.0831; synergy score with cetuximab 0.097; synergy score with trametinib 0.283; active.
HSPB8 (GeneID 26353) #2 showed synergy score with BYL719 = 0.0613; synergy score with cetuximab 0.242; synergy score with trametinib 0.161; active.
Against HSPB8 (GeneID 26353) #3, the entry reads synergy score with BYL719 = -0.0607; synergy score with cetuximab 0.11; synergy score with trametinib 0.00196; active.
Against HSPB8 (GeneID 26353) #4, the entry reads synergy score with BYL719 = 0.14; synergy score with cetuximab 0.155; synergy score with trametinib 0.239; active.
Knock-down of CSNK2A2 (GeneID 1459) #1 resulted in: synergy score with BYL719 = -0.178; synergy score with cetuximab 0.0247; synergy score with trametinib 0.0857; inactive.
CSNK2A2 (GeneID 1459) #2 scored synergy score with BYL719 = -0.109; synergy score with cetuximab -0.0485; synergy score with trametinib -0.00745; inactive.
Against CSNK2A2 (GeneID 1459) #3, the values are synergy score with BYL719 = -0.102; synergy score with cetuximab 0.0139; synergy score with trametinib 0.109; active.
CSNK2A2 (GeneID 1459) #4 scored synergy score with BYL719 = -0.215; synergy score with cetuximab 0.0205; synergy score with trametinib 0.0244; inactive.
MAPK4 (GeneID 5596) #1 scored synergy score with BYL719 = -0.0281; synergy score with cetuximab 0.02; synergy score with trametinib 0.248; active.
Knock-down of MAPK4 (GeneID 5596) #2 came out at: synergy score with BYL719 = 0.216; synergy score with cetuximab 0.191; synergy score with trametinib 0.386; active.
Knock-down of MAPK4 (GeneID 5596) #3 came out at: synergy score with BYL719 = 0.0741; synergy score with cetuximab 0.134; synergy score with trametinib 0.147; active.
Depletion of MAPK4 (GeneID 5596) #4 gave: synergy score with BYL719 = 0.179; synergy score with cetuximab 0.14; synergy score with trametinib 0.367; active.
Knock-down of KCNH8 (GeneID 131096) #1 came out at: synergy score with BYL719 = 0.0546; synergy score with cetuximab 0.0727; synergy score with trametinib 0.343; active.
With knock-down of KCNH8 (GeneID 131096) #2, the record shows synergy score with BYL719 = 0.159; synergy score with cetuximab 0.0724; synergy score with trametinib 0.301; active.
KCNH8 (GeneID 131096) #3 scored synergy score with BYL719 = -0.00924; synergy score with cetuximab -0.117; synergy score with trametinib 0.141; active.
Knock-down of KCNH8 (GeneID 131096) #4 gave: synergy score with BYL719 = 0.131; synergy score with cetuximab 0.305; synergy score with trametinib 0.302; active.
After knock-down of PAK1 (GeneID 5058) #1 the results were synergy score with BYL719 = 0.0505; synergy score with cetuximab 0.105; synergy score with trametinib 0.271; active.
PAK1 (GeneID 5058) #2 scored synergy score with BYL719 = 0.165; synergy score with cetuximab 0.367; synergy score with trametinib 0.331; active.
After knock-down of PAK1 (GeneID 5058) #3, the record shows synergy score with BYL719 = 0.295; synergy score with cetuximab 0.295; synergy score with trametinib 0.327; active.
Knock-down of PAK1 (GeneID 5058) #4 resulted in: synergy score with BYL719 = 0.177; synergy score with cetuximab 0.225; synergy score with trametinib 0.169; active.
